Reference: EP0248209A2, “Cyclic peptides having a cytoprotective activity” (HOECHST AKTIENGESELLSCHAFT, priority 1986, dated 1987)
Part of at least one peptide drawing is inferred or uncertain, most often the ends.

How the values were obtained:
[1] = system: isolierte Rattenleberzellen; test: Inhibition of cholate uptake in isolated rat liver cells; assay type: cell-based, Ratten; conditions: qualitative statement; isolated hepatocytes of male Wistar rats, 14C-Cholsäure plus Cholat
[2] = system: isolierte Rattenleberzellen; test: Inhibition of phalloidin uptake in isolated rat liver cells; assay type: cell-based, Ratten; conditions: qualitative statement; isolated hepatocytes of male Wistar rats, H-DMP plus 6 µM Phalloidin

C[C@H](N)C(=O)NCC(=O)N[C@H]1CSSC[C@@H](C(=O)O)NC(=O)[C@H](CO)NC(=O)[C@H]([C@@H](C)O)NC(=O)[C@H](Cc2ccccc2)NC(=O)[C@H]([C@@H](C)O)NC(=O)[C@H](CCCCN)NC(=O)[C@H](Cc2c[nH]c3ccccc23)NC(=O)[C@H](Cc2ccccc2)NC(=O)[C@H](Cc2ccccc2)NC(=O)[C@H](CC(N)=O)NC(=O)[C@H](CCCCN)NC1=O [Somatostatin]
Aufnahme von Cholsäure in isolierte Rattenleberzellen [1]: inhibieren | Aufnahme von Phalloidin in isolierte Rattenleberzellen [2]: inhibieren
